Laboratory results published in publication PMC3226433.
These are yes or no findings as the source states them, for the method shown. In cells and extracts the contact can be indirect. Some binding calls cover weakened binding; strength is not graded here.

Protein sequences, listed by entry. Tags and fused reporters are not part of them.
UniProt P01106: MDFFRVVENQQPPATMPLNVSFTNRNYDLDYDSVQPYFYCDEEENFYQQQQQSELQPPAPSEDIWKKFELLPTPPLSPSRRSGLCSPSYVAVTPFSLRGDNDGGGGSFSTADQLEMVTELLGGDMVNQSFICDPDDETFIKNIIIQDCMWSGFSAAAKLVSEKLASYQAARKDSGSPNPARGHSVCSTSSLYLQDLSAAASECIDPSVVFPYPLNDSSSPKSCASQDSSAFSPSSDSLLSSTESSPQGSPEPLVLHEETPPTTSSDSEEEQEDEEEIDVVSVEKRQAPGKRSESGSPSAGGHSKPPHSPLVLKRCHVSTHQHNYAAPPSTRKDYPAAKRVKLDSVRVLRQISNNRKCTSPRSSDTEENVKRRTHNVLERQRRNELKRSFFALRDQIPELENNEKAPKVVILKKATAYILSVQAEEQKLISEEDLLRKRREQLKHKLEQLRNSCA

Experiments:
[1] = target: c-Myc (human (endogenous in H9 ES cells)), P01106; assay: co-IP; whole-cell lysate of H9 human ES cells (50 mM Hepes pH 7.9, 1 mM MgCl2, 20 mM NaCl, 10 mM EDTA, 10% glycerol, 0.2% NP-40); immunoprecipitation with anti-c-Myc antibody overnight, protein-G-sepharose; Western blot; endogenous proteins; settings: remark: other sources report otherwise
[2] = target: c-Myc (human (endogenous in H9 ES cells)) (UniProt P01106); assay: as above

binding [1] | binding [2] | Binder
no binding | – | TRIM28, Q13263 1-835 (protein) MAASAAAASAAAASAASGSPGPGEGSAGGEKRSTAPSAAASASASAAASSPAGGGAEALELLEHCGVCRERLRPEREPRLLPCLHSACSACLGPAAPAAANSSGDGGAAGDGTVVDCPVCKQQCFSKDIVENYFMRDSGSKAATDAQDANQCCTSCEDNAPATSYCVECSEPLCETCVEAHQRVKYTKDHTVRSTGPAKSRDGERTVYCNVHKHEPLVLFCESCDTLTCRDCQLNAHKDHQYQFLEDAVRNQRKLLASLVKRLGDKHATLQKSTKEVRSSIRQVSDVQKRVQVDVKMAILQIMKELNKRGRVLVNDAQKVTEGQQERLERQHWTMTKIQKHQEHILRFASWALESDNNTALLLSKKLIYFQLHRALKMIVDPVEPHGEMKFQWDLNAWTKSAEAFGKIVAERPGTNSTGPAPMAPPRAPGPLSKQGSGSSQPMEVQEGYGFGSGDDPYSSAEPHVSGVKRSRSGEGEVSGLMRKVPRVSLERLDLDLTADSQPPVFKVFPGSTTEDYNLIVIERGAAAAATGQPGTAPAGTPGAPPLAGMAIVKEEETEAAIGAPPTATEGPETKPVLMALAEGPGAEGPRLASPSGSTSSGLEVVAPEGTSAPGGGPGTLDDSATICRVCQKPGDLVMCNQCEFCFHLDCHLPALQDVPGEEWSCSLCHVLPDLKEEDGSLSLDGADSTGVVAKLSPANQRKCERVLLALFCHEPCRPLHQLATDSTFSLDQPGGTLDLTLIRARLQEKLSPPYSSPQEFAQDVGRMFKQFNKLTEDKADVQSIIGLQRFFETRMNEAFGDTKFSAVLVEPPPMSLPGAGLSSQELSGGPGDGP
– | binds | Miz-1 (protein, UniProt Q13105 1-803) MDFPQHSQHVLEQLNQQRQLGLLCDCTFVVDGVHFKAHKAVLAACSEYFKMLFVDQKDVVHLDISNAAGLGQVLEFMYTAKLSLSPENVDDVLAVATFLQMQDIITACHALKSLAEPATSPGGNAEALATEGGDKRAKEEKVATSTLSRLEQAGRSTPIGPSRDLKEERGGQAQSAASGAEQTEKADAPREPPPVELKPDPTSGMAAAEAEAALSESSEQEMEVEPARKGEEEQKEQEEQEEEGAGPAEVKEEGSQLENGEAPEENENEESAGTDSGQELGSEARGLRSGTYGDRTESKAYGSVIHKCEDCGKEFTHTGNFKRHIRIHTGEKPFSCRECSKAFSDPAACKAHEKTHSPLKPYGCEECGKSYRLISLLNLHKKRHSGEARYRCEDCGKLFTTSGNLKRHQLVHSGEKPYQCDYCGRSFSDPTSKMRHLETHDTDKEHKCPHCDKKFNQVGNLKAHLKIHIADGPLKCRECGKQFTTSGNLKRHLRIHSGEKPYVCIHCQRQFADPGALQRHVRIHTGEKPCQCVMCGKAFTQASSLIAHVRQHTGEKPYVCERCGKRFVQSSQLANHIRHHDNIRPHKCSVCSKAFVNVGDLSKHIIIHTGEKPYLCDKCGRGFNRVDNLRSHVKTVHQGKAGIKILEPEEGSEVSVVTVDDMVTLATEALAATAVTQLTVVPVGAAVTADETEVLKAEISKAVKQVQEEDPNTHILYACDSCGDKFLDANSLAQHVRIHTAQALVMFQTDADFYQQYGPGGTWPAGQVLQAGELVFRPRDGAEGQPALAETSPTAPECPPPAE
